# Assay results published in the supplement of paper PMC8728848.
# Some of the results follow.
# B1: PX14404-bvu-534-26-534 (Bacteroides vulgatus) (protein)
# chain: EDPRGKLTPENFFSTQDELNMSIYALYQKVNLSQVYTNMQLPQWQGDDITTNPGSNKQPAAEMDKFAAANNNKGVKDAWNMHYAIVKAANLIIQGASKTPTTQDEINIALGQAKFWRAYAYFTLVRLWGPLPMNLDNVNDDYTKPLSPVEEVYGHIVQDLTEAEAVLPTGYSGSPRFLNGVNVYVTRQAAKSTLAAVYMAMAGWPMNKTEYYAKAAEKAKEVIEGVNRGEYEYKLDKDYKDVYAMSNNYNNETVLGINYSPFVDWAQDSELTSCNQFESLGGWGDAWGEIRFWKEFPDGPRKDATYDPKIRLKDGTLVDWWELKEDGTPVVPEHHPMFSIFSVNWDPASKVNTSAPYDYTKPASQNMCNDHRHRIIRYSEVLLWYAEAKARTGQTDELAFKCLNDVRERAGLEPLTGLSADDLAEAAYKEHGWEVAGYWVALVTRRADQFRMNRLKDTFKERAENTAVEVADGILVKESVEYTNRTWSDNLMYLPYPDMDSQKNPNLVR
# What was measured:
# Assay in all cases: glycan array binding signal (z-score within array); higher = stronger binding
# Conditions in all cases: glycan notation: IUPAC condensed, linker removed
# GlcNAc(b1-3)Man = target: GlcNAc(b1-3)Man
# Outline: (§1)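 Arrays were curated from the Consortium for Functional Glycomics database, 3228 in total, and kept only where the protein sequence was available. Binding is expressed as a within-array Z-score. This score was averaged across arrays of the same protein sequence at different concentrations or buffers and across linkers, and negative values can be read as non-binding.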
# [1] = target: GlcNAc(b1-3)[GlcNAc(b1-4)][GlcNAc(b1-6)]GlcNAc
# Outline: as §1
# [2] = target: GlcNAc(b1-3)[GlcNAc(b1-6)]Gal(b1-4)GlcNAc
# Outline: as §1
# [3] = target: GlcNAc(b1-3)[GlcNAc(b1-6)]GalNAc
# Outline: as §1
# [4] = target: GlcNAc(b1-4)Gal(b1-4)GlcNAc
# Outline: as §1
# GlcNAc(b1-4)GlcNAc = target: GlcNAc(b1-4)GlcNAc
# Outline: as §1
# [5] = target: GlcNAc(b1-4)GlcNAc(b1-4)GlcNAc
# Outline: as §1
# [6] = target: GlcNAc(b1-4)GlcNAc(b1-4)GlcNAc(b1-4)GlcNAc(b1-4)GlcNAc
# Outline: as §1
# [7] = target: GlcNAc(b1-4)GlcNAc(b1-4)GlcNAc(b1-4)GlcNAc(b1-4)GlcNAc(b1-4)GlcNAc
# Outline: as §1
# [8] = target: GlcNAc(b1-4)[GlcNAc(b1-6)]GalNAc
# Outline: as §1
# [9] = target: GlcNAc(b1-6)Gal(b1-4)GlcNAc
# Outline: as §1
# GlcNAc(b1-6)GalNAc = target: GlcNAc(b1-6)GalNAc
# Outline: as §1
# [10] = target: GlcNAc6S(b1-3)Gal(b1-4)GlcNAc
# Outline: as §1
# Kdn(a2-3)Gal(b1-3)GalNAc = target: Kdn(a2-3)Gal(b1-3)GalNAc
# Outline: as §1
# Kdn(a2-3)Gal(b1-3)GlcNAc = target: Kdn(a2-3)Gal(b1-3)GlcNAc
# Outline: as §1
# Kdn(a2-3)Gal(b1-4)Glc = target: Kdn(a2-3)Gal(b1-4)Glc
# Outline: as §1
# Kdn(a2-3)Gal(b1-4)GlcNAc = target: Kdn(a2-3)Gal(b1-4)GlcNAc
# Outline: as §1
# [11] = target: Kdn(a2-3)Gal(b1-4)[Fuc(a1-3)]GlcNAc
# Outline: as §1
# Kdn(a2-6)Gal(b1-4)GlcNAc = target: Kdn(a2-6)Gal(b1-4)GlcNAc
# Outline: as §1
# [12] = target: Man(a1-2)Man(a1-2)Man(a1-3)Man
# Outline: as §1
# [13] = target: Man(a1-2)Man(a1-2)Man(a1-6)[Man(a1-3)]Man
# Outline: as §1
# Man(a1-2)Man(a1-3)Man = target: Man(a1-2)Man(a1-3)Man
# Outline: as §1
# [14] = target: Man(a1-2)Man(a1-3)[Man(a1-2)Man(a1-6)]Man
# Outline: as §1
# [15] = target: Man(a1-2)Man(a1-3)[Man(a1-2)Man(a1-6)]Man(a1-6)[Man(a1-2)Man(a1-2)Man(a1-3)]Man
# Outline: as §1
# [16] = target: Man(a1-2)Man(a1-3)[Man(a1-2)Man(a1-6)]Man(a1-6)[Man(a1-2)Man(a1-2)Man(a1-3)]Man(b1-4)GlcNAc(b1-4)GlcNAc
# Outline: as §1
# [17] = target: Man(a1-2)Man(a1-3)[Man(a1-6)]Man(a1-6)[Man(a1-2)Man(a1-3)]Man(b1-4)GlcNAc(b1-4)GlcNAc
# Outline: as §1
# [18] = target: Man(a1-2)Man(a1-6)[Man(a1-3)]Man(a1-6)[Man(a1-2)Man(a1-2)Man(a1-3)]Man
# Outline: as §1
# [19] = target: Man(a1-2)Man(a1-6)[Man(a1-3)]Man(a1-6)[Man(a1-2)Man(a1-2)Man(a1-3)]Man(b1-4)GlcNAc(b1-4)GlcNAc
# Outline: as §1
# Man(a1-3)[Man(a1-6)]Man = target: Man(a1-3)[Man(a1-6)]Man
# Outline: as §1
# [20] = target: Man(a1-3)[Man(a1-6)]Man(a1-6)[Man(a1-2)Man(a1-3)]Man(b1-4)GlcNAc(b1-4)GlcNAc
# Outline: as §1
# [21] = target: Man(a1-3)[Man(a1-6)]Man(a1-6)[Man(a1-3)]Man
# Outline: as §1
# [22] = target: Man(a1-3)[Man(a1-6)]Man(a1-6)[Man(a1-3)]Man(b1-4)GlcNAc(b1-4)GlcNAc
# Outline: as §1
# [23] = target: Man(a1-3)[Man(a1-6)]Man(b1-4)GlcNAc(b1-4)GlcNAc
# Outline: as §1
# [24] = target: Man(a1-3)[Man(a1-6)]Man(b1-4)GlcNAc(b1-4)[Fuc(a1-6)]GlcNAc
# Outline: as §1
# Man(a1-6)Man = target: Man(a1-6)Man
# Outline: as §1
# Man(b1-4)GlcNAc = target: Man(b1-4)GlcNAc
# Outline: as §1
# MurNAc(b1-4)GlcNAc = target: MurNAc(b1-4)GlcNAc
# Outline: as §1
# Neu5Ac(a2-3)Gal = target: Neu5Ac(a2-3)Gal
# Outline: as §1
binder,measurement,setting,value
B1,glycan array binding signal (z-score),GlcNAc(b1-3)Man,0.749
same,glycan array binding signal (z-score),[1],0.846
same,glycan array binding signal (z-score),[2],-0.97
same,glycan array binding signal (z-score),[3],-0.334
same,glycan array binding signal (z-score),[4],-0.74
same,glycan array binding signal (z-score),GlcNAc(b1-4)GlcNAc,0.217
same,glycan array binding signal (z-score),[5],-0.128
same,glycan array binding signal (z-score),[6],-0.115
same,glycan array binding signal (z-score),[7],-0.963
same,glycan array binding signal (z-score),[8],-0.28
same,glycan array binding signal (z-score),[9],-0.346
same,glycan array binding signal (z-score),GlcNAc(b1-6)GalNAc,0.612
same,glycan array binding signal (z-score),[10],-0.132
same,glycan array binding signal (z-score),Kdn(a2-3)Gal(b1-3)GalNAc,1.92
same,glycan array binding signal (z-score),Kdn(a2-3)Gal(b1-3)GlcNAc,-0.008
same,glycan array binding signal (z-score),Kdn(a2-3)Gal(b1-4)Glc,0.308
same,glycan array binding signal (z-score),Kdn(a2-3)Gal(b1-4)GlcNAc,1.4
same,glycan array binding signal (z-score),[11],-0.295
same,glycan array binding signal (z-score),Kdn(a2-6)Gal(b1-4)GlcNAc,0.367
same,glycan array binding signal (z-score),[12],0.302
same,glycan array binding signal (z-score),[13],1.57
same,glycan array binding signal (z-score),Man(a1-2)Man(a1-3)Man,1.24
same,glycan array binding signal (z-score),[14],-0.867
same,glycan array binding signal (z-score),[15],-0.57
same,glycan array binding signal (z-score),[16],0.651
same,glycan array binding signal (z-score),[17],-0.161
same,glycan array binding signal (z-score),[18],-0.052
same,glycan array binding signal (z-score),[19],0.339
same,glycan array binding signal (z-score),Man(a1-3)[Man(a1-6)]Man,-0.096
same,glycan array binding signal (z-score),[20],0.378
same,glycan array binding signal (z-score),[21],2.67
same,glycan array binding signal (z-score),[22],1.02
same,glycan array binding signal (z-score),[23],-0.728
same,glycan array binding signal (z-score),[24],-0.886
same,glycan array binding signal (z-score),Man(a1-6)Man,-0.464
same,glycan array binding signal (z-score),Man(b1-4)GlcNAc,-0.223
same,glycan array binding signal (z-score),MurNAc(b1-4)GlcNAc,0.48
same,glycan array binding signal (z-score),Neu5Ac(a2-3)Gal,0.33

# Rewritten with tabs: part of the list above.
binder	measurement	setting	value
B1	glycan array binding signal (z-score)	GlcNAc(b1-3)Man	0.749
same	glycan array binding signal (z-score)	[8]	-0.28
